In patent US20220098319A1 (SHANGHAI PHARMAEXPLORER, published 2022):
These are yes or no findings as the source states them, for the method shown. Some results given as binding are weak or reduced against the parent protein; the word gives no strength.

B1: mab030xhIgG1TM (clone 42A5A7), mouse-human chimeric anti-CD73 antibody (antibody, V domains shown)
VH: DIQLQESGPGLVKPSQSLSLTCSVTGYSITSRYYWNWIRQFPGNKLEWMGYITYDDNNNYNPSLKNRISITRDTSKNQFFLKLNSVTPEDTATYYCARGGWDPFLYWGQGTLVTVSA
VL: DIQMTQSPASLSASVGETVTITCRASDNIYSYLAWYQQKQGKSLQLLVDSAKNLGEGVPSRFSGSGSGTQFYLKINSLQPEDFGVYYCQHYYGTPFTFGGGTKLELK
notes: also called mAb030 chimeric antibody
B2: mab032xhIgG1TM (clone 56F12H8), mouse-human chimeric anti-CD73 antibody (antibody, V domains shown)
VH: EVQLVESGGDLVKPGGSLKLSCAASGFTFSTHGMSWVRQTPDKRLEWVAIISSDRSDIDYTDNVKGRFTISRDNGKNTLYLQMSSLKSEDTAIYHCARHRGYDGFYYAMDYWGQGTSVTVSS
VL: DILMTQSPSSLTVTAGEKVTMSCRSSQSLLNSGNQKNYLTWYQQRPGRPPKLLIYWASTRISGVPDRFAGSGSGTDFTLTISIVQAEDLAVYYCQNDYSYPLTFGSGTKLELR
notes: also called mAb032 chimeric antibody
B3: mab042xhIgG1TM (clone 77B9A3), mouse-human chimeric anti-CD73 antibody (antibody, V domains shown)
VH: QVQLQQSGAGLVKPGASVKLSCKASGYTFTNYWMHWVKQRPGQGLEWIGMIHPNSGSTNNNEKFKNKATLTVDKSSNTAYMQLSSLTSEDSAVYYCARFFFGGYPHYYALDYWGQGTSVTVSS
VL: DIVMTQSQKFMSTTVGDRVSITCKASQNVGTAVAWYQQKPGQSPKLLIYSASDRYTGVPDRLTGSGSGTDFTLTISNVQSEDLADYFCQQYSSFPLFTFGSGTKLVIQ
notes: also called mAb042 chimeric antibody
B4: mab065xhIgG1TM (clone 125A4E10), mouse-human chimeric anti-CD73 antibody (antibody, V domains shown)
VH: EVQLQQSGPELVKPGASVKISCKASGYTFTDYYMNWVKQSHGKSLEWIGNINPNNGDTNYNQKFKGKATLTVDKSSSTASMELRSLTSEDSAVYYCANSGYYYFDYWGQGTTLTVSS
VL: DIVMTQSPSSLTVTAGEKVTMSCKSSQSLLNSGNQKNYLTWYQQKPGQPPKVLIYWASTRESGVPDRFTGSGSGTDFTLTISSVQAEDLAVYYCQNDYSYPPTFGGGTNLEIK
notes: also called mAb065 chimeric antibody
B5: mab038xhIgG1TM (clone 69C9E12), mouse-human chimeric anti-CD73 antibody (antibody, V domains shown)
VH: QVQLQQPGTELVNPGASVKLSCKASGYTFTSYWMHWVKQRPGQGLEWIGNINPSNGGTHYNEKFNNKATLTVDKSSSTAYMQLSSLTSEDSAVFYCARGDYAYDWYFTVWGTGTTVTVSS
VL: DIVLTQSPASLAVSLGQRAIISCKASQSVSFAGTGLMHWYQQKPGQQPKLLIYRVSNLEAGIPTRFSGSGSRTDFTLNIHPVEEDDAATYYCQQNREFPWTFGGGTKLEIK
notes: also called mAb038 chimeric antibody
B6: mab041xhIgG1TM (clone 71E10B3), mouse-human chimeric anti-CD73 antibody (antibody, V domains shown)
VH: QVQLQQPGTELVKPGASVKLSCKASGYTFTSYWMHWVKQRPGQGLEWIGNINPSNGGTNYNQKFKSKATLTVDKSSNTASMQLSSLTSEDSAVYYCARGDYGYDWYLDVWGTGTTVTVSS
VL: DIVLTQSPASLAVSLGQRAIISCKASQSVSFAGPSLMHWYQQKPGQQPKLLIYRTSNLEAGVPTRFSGSGSGTDFTLNIHPVEEDDAATYYCQQNREFPWTFGGGTKLEIK
notes: also called mAb041 chimeric antibody
B7: mab034xhIgG1TM (clone 60G1C8), mouse-human chimeric anti-CD73 antibody (antibody, V domains shown)
VH: DVQLQESGPGLVKPSQSLSLTCSVTGYSITSRYYWNWIRQFPGNKLEWMGYMTYDGTNNYNPSLTNRISITRDTSKNQFFLKLNSVTAEDTATYFCARGGWDPFDYWGQGTTLTVSS
VL: DIQMTQSPAALSASVGETVTITCRASDNIYSYLAWYQQKQGKCPQLLVKNAKTLAEGVPSRFSGSGSGTQFSLRINSLQPDDFGTYYCQHYYGTPLTFGAGTKLELK
notes: also called mAb034 chimeric antibody
B8: mab036xhIgG1TM (clone 66H6C12), mouse-human chimeric anti-CD73 antibody (antibody, V domains shown)
VH: QVQLQQSGAEVVKPGASVKISCKASGYVFSSYWINWVKQRPGKGLEWIGKIFPGNGDTDYNGNFKGKATLTADKSSSTAYMQLSSLTSEDSAVYFCAGFADWGQGTLVTVSA
VL: DIQMTQSPSSLSASLGERVSLTCRASQDIGERLIWLQQEPDGTFKRLIYATSSLDSGVPKRFSGSSSGSDYSLTISRLESEDFVDYYCLQYASSPYTFGGGTKLEIK
notes: also called mAb036 chimeric antibody
B9: mab044xhIgG1TM (clone 80H7D6), mouse-human chimeric anti-CD73 antibody (antibody, V domains shown)
VH: EVKLVESGGGLVQPGGSLRLSCAASGFTFTDYYMSWVRQPPGKALEWLGFIRNKADGSTTEYSASVKGRFTISRDNSQSILYLQMNALRPEDSATYYCTRSPIYFDNWYFDVWGTGTTVTVSS
VL: DIVMSQSPSSLAVSVGEKVTMTCKSSQSLLYSNNQKNYLAWYQQKPGQSPKLLIYWASTRESGVPDRFTGSGSGTDFTLTLSSVKAEDLAVYYCQQYYSYPFTFGSGTKLEIK
notes: also called mAb044 chimeric antibody
B10: mab020xhIgG1TM (clone 24D6B4), mouse-human chimeric anti-CD73 antibody (antibody, V domains shown)
VH: EVQLQQSGPELVKPGASVKIPCKASGYTFTDYNMDWVKQRHGKSLEWIGDINPNNGGTVYNQKFKGKATLTVDKSSNTAYMELRSLTSEDTAVYYCARISGTGYWYFDVWGTGTTVTVSS
VL: DIQMTQSPASLSVSVGETVTITCRASENIYSNLAWYQQKQGKSPQLLVYGATNLADGVPSRFSGSDSGTQYSLKINSLQSEDFGSYYCQHFWGTPWTFGGGTKLEIK
notes: also called mAb020 chimeric antibody
B11: mAb030 (clone 42A5A7), murine anti-CD73 antibody (antibody, V domains shown)
VH: DIQLQESGPGLVKPSQSLSLTCSVTGYSITSRYYWNWIRQFPGNKLEWMGYITYDDNNNYNPSLKNRISITRDTSKNQFFLKLNSVTPEDTATYYCARGGWDPFLYWGQGTLVTVSA
VL: DIQMTQSPASLSASVGETVTITCRASDNIYSYLAWYQQKQGKSLQLLVDSAKNLGEGVPSRFSGSGSGTQFYLKINSLQPEDFGVYYCQHYYGTPFTFGGGTKLELK
notes: Purified from hybridoma supernatant; also called antibody 030
B12: mAb032 (clone 56F12H8), murine anti-CD73 antibody (antibody, V domains shown)
VH: EVQLVESGGDLVKPGGSLKLSCAASGFTFSTHGMSWVRQTPDKRLEWVAIISSDRSDIDYTDNVKGRFTISRDNGKNTLYLQMSSLKSEDTAIYHCARHRGYDGFYYAMDYWGQGTSVTVSS
VL: DILMTQSPSSLTVTAGEKVTMSCRSSQSLLNSGNQKNYLTWYQQRPGRPPKLLIYWASTRISGVPDRFAGSGSGTDFTLTISIVQAEDLAVYYCQNDYSYPLTFGSGTKLELR
notes: Purified from hybridoma supernatant
B13: mAb042 (clone 77B9A3), murine anti-CD73 antibody (antibody, V domains shown)
VH: QVQLQQSGAGLVKPGASVKLSCKASGYTFTNYWMHWVKQRPGQGLEWIGMIHPNSGSTNNNEKFKNKATLTVDKSSNTAYMQLSSLTSEDSAVYYCARFFFGGYPHYYALDYWGQGTSVTVSS
VL: DIVMTQSQKFMSTTVGDRVSITCKASQNVGTAVAWYQQKPGQSPKLLIYSASDRYTGVPDRLTGSGSGTDFTLTISNVQSEDLADYFCQQYSSFPLFTFGSGTKLVIQ
notes: as for B12
B14: mAb065 (clone 125A4E10), murine anti-CD73 antibody (antibody, V domains shown)
VH: EVQLQQSGPELVKPGASVKISCKASGYTFTDYYMNWVKQSHGKSLEWIGNINPNNGDTNYNQKFKGKATLTVDKSSSTASMELRSLTSEDSAVYYCANSGYYYFDYWGQGTTLTVSS
VL: DIVMTQSPSSLTVTAGEKVTMSCKSSQSLLNSGNQKNYLTWYQQKPGQPPKVLIYWASTRESGVPDRFTGSGSGTDFTLTISSVQAEDLAVYYCQNDYSYPPTFGGGTNLEIK
notes: as for B12
B15: mAb041 (clone 71E10B3), murine anti-CD73 antibody (antibody, V domains shown)
VH: QVQLQQPGTELVKPGASVKLSCKASGYTFTSYWMHWVKQRPGQGLEWIGNINPSNGGTNYNQKFKSKATLTVDKSSNTASMQLSSLTSEDSAVYYCARGDYGYDWYLDVWGTGTTVTVSS
VL: DIVLTQSPASLAVSLGQRAIISCKASQSVSFAGPSLMHWYQQKPGQQPKLLIYRTSNLEAGVPTRFSGSGSGTDFTLNIHPVEEDDAATYYCQQNREFPWTFGGGTKLEIK
notes: as for B12
B16: mAb038 (clone 69C9E12), murine anti-CD73 antibody (antibody, V domains shown)
VH: QVQLQQPGTELVNPGASVKLSCKASGYTFTSYWMHWVKQRPGQGLEWIGNINPSNGGTHYNEKFNNKATLTVDKSSSTAYMQLSSLTSEDSAVFYCARGDYAYDWYFTVWGTGTTVTVSS
VL: DIVLTQSPASLAVSLGQRAIISCKASQSVSFAGTGLMHWYQQKPGQQPKLLIYRVSNLEAGIPTRFSGSGSRTDFTLNIHPVEEDDAATYYCQQNREFPWTFGGGTKLEIK
notes: as for B12
B17: mAb034 (clone 60G1C8), murine anti-CD73 antibody (antibody, V domains shown)
VH: DVQLQESGPGLVKPSQSLSLTCSVTGYSITSRYYWNWIRQFPGNKLEWMGYMTYDGTNNYNPSLTNRISITRDTSKNQFFLKLNSVTAEDTATYFCARGGWDPFDYWGQGTTLTVSS
VL: DIQMTQSPAALSASVGETVTITCRASDNIYSYLAWYQQKQGKCPQLLVKNAKTLAEGVPSRFSGSGSGTQFSLRINSLQPDDFGTYYCQHYYGTPLTFGAGTKLELK
notes: as for B12
B18: mAb036 (clone 66H6C12), murine anti-CD73 antibody (antibody, V domains shown)
VH: QVQLQQSGAEVVKPGASVKISCKASGYVFSSYWINWVKQRPGKGLEWIGKIFPGNGDTDYNGNFKGKATLTADKSSSTAYMQLSSLTSEDSAVYFCAGFADWGQGTLVTVSA
VL: DIQMTQSPSSLSASLGERVSLTCRASQDIGERLIWLQQEPDGTFKRLIYATSSLDSGVPKRFSGSSSGSDYSLTISRLESEDFVDYYCLQYASSPYTFGGGTKLEIK
notes: as for B12
B19: mAb044 (clone 80H7D6), murine anti-CD73 antibody (antibody, V domains shown)
VH: EVKLVESGGGLVQPGGSLRLSCAASGFTFTDYYMSWVRQPPGKALEWLGFIRNKADGSTTEYSASVKGRFTISRDNSQSILYLQMNALRPEDSATYYCTRSPIYFDNWYFDVWGTGTTVTVSS
VL: DIVMSQSPSSLAVSVGEKVTMTCKSSQSLLYSNNQKNYLAWYQQKPGQSPKLLIYWASTRESGVPDRFTGSGSGTDFTLTLSSVKAEDLAVYYCQQYYSYPFTFGSGTKLEIK
notes: as for B12
B20: mAb020 (clone 24D6B4), murine anti-CD73 antibody (antibody, V domains shown)
VH: EVQLQQSGPELVKPGASVKIPCKASGYTFTDYNMDWVKQRHGKSLEWIGDINPNNGGTVYNQKFKGKATLTVDKSSNTAYMELRSLTSEDTAVYYCARISGTGYWYFDVWGTGTTVTVSS
VL: DIQMTQSPASLSVSVGETVTITCRASENIYSNLAWYQQKQGKSPQLLVYGATNLADGVPSRFSGSDSGTQYSLKINSLQSEDFGSYYCQHFWGTPWTFGGGTKLEIK
notes: as for B12

Target: cynomolgus monkey CD73 (on transfected CHOK1 cells) (cynomolgus monkey)
Assay: FACS on CHOK1-cCD73 cells, chimeric antibody

binding, binds:
B1
B2
B3
B4
B5
B6
B7
B8
B9
B10

Target: cynomolgus monkey CD73 (on transfected CHOK1 cells) (cynomolgus monkey)
Assay: FACS on CHOK1-cCD73 cells

binding, binds:
B11
B12
B13
B14
B15
B16
B17
B18
B19
B20
